We go through 1 sequence from publication PMC4772114, “Structural basis for the regulation of enzymatic activity of Regnase-1 by domain-domain interactions” (Scientific Reports, 2016).

Construct, isoform or probe ends are uncertain for at least one entry. For part of these data: A weaker result is weaker than the reference pair of the same experiment. At least one verdict rests on a figure or table, not on a statement of the authors. Protein sequences can lack the tags named with them.

What all share (assay): EMSA
For data set [1], the target named is T1, Regnase-1 NTD-PIN-ZF (DDNN) D226N,D244N (Mus musculus) (UniProt Q5D1E7).
T1 sequence (looked up, limits assumed): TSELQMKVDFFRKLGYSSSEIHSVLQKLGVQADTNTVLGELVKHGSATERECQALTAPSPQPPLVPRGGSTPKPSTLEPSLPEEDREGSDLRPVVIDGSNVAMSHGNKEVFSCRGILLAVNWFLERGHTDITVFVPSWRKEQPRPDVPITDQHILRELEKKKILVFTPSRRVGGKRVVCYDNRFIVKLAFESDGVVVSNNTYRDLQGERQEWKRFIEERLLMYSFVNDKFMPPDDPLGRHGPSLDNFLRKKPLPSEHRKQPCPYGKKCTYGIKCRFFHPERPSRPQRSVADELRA
Conditions: NTD does not significantly change binding; EMSA: 20 mM HEPES-NaOH pH 6.8, 150 mM NaCl, 1 mM DTT, 10% glycerol, 0.1% NP-40, 4 C, 30 min; recombinant protein; protein details: GST removed (HRV-3C); label: 5'-6-FAM. Background: In EMSA bound probe runs differently from free probe, usually more slowly.

The target of data set [2] is T2, Regnase-1 PIN (DDNN) D226N,D244N (Mus musculus) (UniProt Q5D1E7).
T2 sequence (looked up, limits assumed): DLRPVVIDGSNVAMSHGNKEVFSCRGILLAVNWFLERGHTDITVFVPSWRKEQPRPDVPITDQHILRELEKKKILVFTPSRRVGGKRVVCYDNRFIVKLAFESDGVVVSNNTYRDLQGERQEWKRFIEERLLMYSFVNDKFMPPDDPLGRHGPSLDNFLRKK
As to conditions: lower than with ZF present; EMSA: 20 mM HEPES-NaOH pH 6.8, 150 mM NaCl, 1 mM DTT, 10% glycerol, 0.1% NP-40, 4 C, 30 min; recombinant protein; protein details: GST removed (HRV-3C); label: 5'-6-FAM.

For data set [3], the target named is T3, Regnase-1 PIN-ZF (DDNN) D226N,D244N (Mus musculus) (UniProt Q5D1E7).
T3 sequence (looked up, limits assumed): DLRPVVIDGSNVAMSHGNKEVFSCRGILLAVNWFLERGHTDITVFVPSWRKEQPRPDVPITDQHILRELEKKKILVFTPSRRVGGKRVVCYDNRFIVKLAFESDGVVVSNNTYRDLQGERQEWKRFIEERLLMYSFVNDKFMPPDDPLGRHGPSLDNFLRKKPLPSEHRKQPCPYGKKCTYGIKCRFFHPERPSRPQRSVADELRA
Conditions: ZF increases binding; EMSA: 20 mM HEPES-NaOH pH 6.8, 150 mM NaCl, 1 mM DTT, 10% glycerol, 0.1% NP-40, 4 C, 30 min; recombinant protein; protein details: GST removed (HRV-3C); label: 5'-6-FAM.

As for “UGUUGUUCUCUACGAAGAACUGACA [IL-6 mRNA 3'UTR (82-106), 6-FAM]”, the binding result is “binds” in data set [1], “binds more weakly” in data set [2] and “binds” in data set [3].
